Laboratory results: patent publication US20140294819A1 (NVIP, published 2014)
Substitutions are numbered along the chain they refer to. Results are given in words; binding and its absence hold for the method and conditions named. Some entries that bind do so weakly or less than the wild type.

Sequences of proteins named here, by UniProt entry; tags and fusion partners are left off. A change or cut given only in a name is not applied to a line headed by its entry. A line that says so, or that is headed by a name, gives the form on record, which may keep a tag or linker.
soluble recombinant canine high affinity Fc receptor (scaCD64) (Q7YQJ5, form named): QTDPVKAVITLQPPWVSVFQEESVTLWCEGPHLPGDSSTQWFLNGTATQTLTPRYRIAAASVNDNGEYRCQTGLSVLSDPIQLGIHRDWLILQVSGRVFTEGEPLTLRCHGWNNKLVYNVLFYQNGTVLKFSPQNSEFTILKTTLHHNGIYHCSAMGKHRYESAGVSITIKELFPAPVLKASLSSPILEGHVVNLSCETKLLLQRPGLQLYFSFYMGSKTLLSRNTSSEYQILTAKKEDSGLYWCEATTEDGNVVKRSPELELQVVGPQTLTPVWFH

B1: chimeric mouse-canine RA2, HCB isotype (antibody)
heavy: QVQLKQSGPGLVPPSQSLSITCTVSGFSLTNYGVHWVRQSPGKGLEWLGVIWSGGTTDYNAAFISRLSISKDNSKSQVFFKMNSLQADDTAIYYCARGPRKFYYYGMDYWGQGTSVTVSSASTTAPSVFPLAPSCGSTSGSTVALACLVSGYFPEPVTVSWNSGSLTSGVHTFPSVLQSSGLYSLSSMVTVPSSRWPSETFTCNVAHPASKTKVDKPVPKRENGRVPRPPDCPKCPAPEMLGGPSVFIFPPKPKDTLLIARTPEVTCVVVDLDPEDPEVQISWFVDGKQMQTAKTQPREEQFNGTYRVVSVLPIGHQDWLKGKQFTCKVNNKALPSPIERTISKARGQAHQPSVYVLPPSREELSKNTVSLTCLIKDFFPPDIDVEWQSNGQQEPESKYRTTPPQLDEDGSYFLYSKLSVDKSRWQRGDTFICAVMHEALHNHYTQESLSHSPGK
light: DVLMTQTPLSLPVSLGDQASISCRSSQSIVHSNGNTYLEWYLQKPGQSPKLLIYKVSNRFSGVPDRFSGSGSGTDFTLKISRVEAGDLGVYYCFQGLHVPLTFGAGTRLELKRNDAQPAVYLFQPSPDQLHTGSASVVCLLNSFYPKDINVKWKVDGVIQDTGIQESVTEQDKDSTYSLSSTLTMSSTEYLSHELYSCEITHKSLPSTLIKSFQRSECQRVD
notes: also called chiRA2-B; chimeric RA2
B2: caninised RA2, HCB isotype (antibody)
heavy: EVQLVQSGGGLVKPTESLTISCVVSGFSLTNYGVHWVRQSPGKGLEWLGVIWSGGTTDYNAAFISRLSISKDNSKSTVFLRMNSLRADDTAIYYCARGPRKFYYYGMDYWGQGTSVTVSSASTTAPSVFPLAPSCGSTSGSTVALACLVSGYFPEPVTVSWNSGSLTSGVHTFPSVLQSSGLYSLSSMVTVPSSRWPSETFTCNVAHPASKTKVDKPVPKRENGRVPRPPDCPKCPAPEMLGGPSVFIFPPKPKDTLLIARTPEVTCVVVDLDPEDPEVQISWFVDGKQMQTAKTQPREEQFNGTYRVVSVLPIGHQDWLKGKQFTCKVNNKALPSPIERTISKARGQAHQPSVYVLPPSREELSKNTVSLTCLIKDFFPPDIDVEWQSNGQQEPESKYRTTPPQLDEDGSYFLYSKLSVDKSRWQRGDTFICAVMHEALHNHYTQESLSHSPGK
light: B1 light with V2I, L3V, P12S, L15Q, G16E, D17E, Q18E, L88A, R108K
notes: also called caRA2-B
B3: chimeric mouse-canine RF2, HCB isotype (antibody)
heavy: B1 heavy with V24I, N31S, K43W, T56S, T57I, F80I, Y105F
light: B1 light with L3V, S28N, L38V, G86E, L97S, R108K
notes: also called chiRF2-B; chimeric RF2
B4: caninised RA2, HCC isotype (antibody)
heavy: EVQLVQSGGGLVKPTESLTISCVVSGFSLTNYGVHWVRQSPGKGLEWLGVIWSGGTTDYNAAFISRLSISKDNSKSTVFLRMNSLRADDTAIYYCARGPRKFYYYGMDYWGQGTSVTVSSASTTAPSVFPLAPSCGSQSGSTVALACLVSGYIPEPVTVSWNSVSLTSGVHTFPSVLQSSGLYSLSSMVTVPSSRWPSETFTCNVAHPATNTKVDKPVAKECECKCNCNNCPCPGCGLLGGPSVFIFPPKPKDILVTARTPTVTCVVVDLDPENPEVQISWFVDSKQVQTANTQPREEQSNGTYRVVSVLPIGHQDWLSGKQFKCKVNNKALPSPIEEIISKTPGQAHQPNVYVLPPSRDEMSKNTVTLTCLVKDFFPPEIDVEWQSNGQQEPESKYRMTPPQLDEDGSYFLYSKLSVDKSRWQRGDTFICAVMHEALHNHYTQISLSHSPGK
light: B1 light with V2I, L3V, P12S, L15Q, G16E, D17E, Q18E, L88A, R108K
notes: See note of m19; also called caRA2-C
B5: caninised RF2, HCB isotype (antibody)
heavy: B2 heavy with V24I, N31S, T56S, T57I, L80I, Y105F
light: DIVMTQTPLSLSVSQEEEASISCRSSQNIVHSNGNTYVEWYLQKPGQSPKLLIYKVSNRFSGVPDRFSGSGSGTDFTLKISRVEAEDAGVYYCFQGSHVPLTFGAGTKLELKRNDAQPAVYLFQPSPDQLHTGSASVVCLLNSFYPKDINVKWKVDGVIQDTGIQESVTEQDKDSTYSLSSTLTMSSTEYLSHELYSCEITHKSLPSTLIKSFQRSECQRVD
notes: also called caRF2-B
B6: caninised RF2, HCC isotype (antibody)
heavy: B4 heavy with V24I, N31S, T56S, T57I, L80I, Y105F
light: B5 light
notes: also called caRF2-C

Each binder was assayed against soluble recombinant canine high affinity Fc receptor (scaCD64) (canine) (UniProt Q7YQJ5) (assay: scaCD64 binding to antibody captured on caCD20 peptide).

| binding | Binder |
| --- | --- |
| binds | B1 |
| binds | B2 |
| binds | B3 |
| binds | B4 |
| binds | B5 |
| binds | B6 |
